Like-named read-outs stand apart in the source and are kept apart here. No constants are given. Whether binding was seen depends on the method and setting. Binding seen in cells or lysates may run through a third protein. Some results given as binding are weak or reduced against the parent protein; the word gives no strength.
What was measured:
Assay in all cases: co-IP
[1] = biological target: CUG-Binding Protein 1 (CELF1) (mouse (endogenous in female ESCs)) (UniProt P28659)
[2] = biological target: T1, CIZ1 (mouse (endogenous in female ESCs)) (UniProt Q8VEH2)
T1 sequence: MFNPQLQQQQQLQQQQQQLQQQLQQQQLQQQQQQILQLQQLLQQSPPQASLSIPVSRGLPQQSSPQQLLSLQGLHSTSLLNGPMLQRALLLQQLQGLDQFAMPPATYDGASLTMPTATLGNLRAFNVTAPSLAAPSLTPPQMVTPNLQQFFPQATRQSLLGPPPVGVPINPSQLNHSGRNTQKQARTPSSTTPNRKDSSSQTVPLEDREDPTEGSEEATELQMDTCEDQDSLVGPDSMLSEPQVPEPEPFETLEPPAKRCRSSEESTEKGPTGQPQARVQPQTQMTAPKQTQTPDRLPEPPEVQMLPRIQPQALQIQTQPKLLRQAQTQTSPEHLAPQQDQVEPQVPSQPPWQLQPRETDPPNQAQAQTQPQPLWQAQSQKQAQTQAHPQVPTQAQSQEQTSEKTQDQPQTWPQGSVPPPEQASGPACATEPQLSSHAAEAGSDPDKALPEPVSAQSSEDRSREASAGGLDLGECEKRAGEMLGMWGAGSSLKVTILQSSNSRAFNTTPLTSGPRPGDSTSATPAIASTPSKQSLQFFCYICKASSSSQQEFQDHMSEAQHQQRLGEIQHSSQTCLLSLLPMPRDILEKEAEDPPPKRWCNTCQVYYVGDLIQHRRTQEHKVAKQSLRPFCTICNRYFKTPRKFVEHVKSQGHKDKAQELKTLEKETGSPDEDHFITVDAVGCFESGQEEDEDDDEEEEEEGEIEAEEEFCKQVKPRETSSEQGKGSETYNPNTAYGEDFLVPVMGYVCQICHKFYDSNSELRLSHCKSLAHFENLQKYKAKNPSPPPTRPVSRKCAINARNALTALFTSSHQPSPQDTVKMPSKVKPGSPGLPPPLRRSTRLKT

Amino acid sequences for entries named in this document (tags omitted).
UniProt P28659: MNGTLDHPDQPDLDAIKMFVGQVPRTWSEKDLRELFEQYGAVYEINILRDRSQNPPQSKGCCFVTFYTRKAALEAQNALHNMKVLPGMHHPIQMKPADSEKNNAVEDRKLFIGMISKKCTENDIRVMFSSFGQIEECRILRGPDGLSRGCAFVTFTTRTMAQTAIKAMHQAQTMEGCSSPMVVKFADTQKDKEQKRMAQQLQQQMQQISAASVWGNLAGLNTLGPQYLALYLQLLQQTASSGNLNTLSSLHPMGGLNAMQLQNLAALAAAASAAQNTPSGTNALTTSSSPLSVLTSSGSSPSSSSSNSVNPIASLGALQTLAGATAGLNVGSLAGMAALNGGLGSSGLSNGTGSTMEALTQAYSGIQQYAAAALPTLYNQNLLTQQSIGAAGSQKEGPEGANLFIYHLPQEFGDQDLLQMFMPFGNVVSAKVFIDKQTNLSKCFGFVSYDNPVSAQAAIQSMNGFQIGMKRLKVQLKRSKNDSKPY
UniProt Q921F2: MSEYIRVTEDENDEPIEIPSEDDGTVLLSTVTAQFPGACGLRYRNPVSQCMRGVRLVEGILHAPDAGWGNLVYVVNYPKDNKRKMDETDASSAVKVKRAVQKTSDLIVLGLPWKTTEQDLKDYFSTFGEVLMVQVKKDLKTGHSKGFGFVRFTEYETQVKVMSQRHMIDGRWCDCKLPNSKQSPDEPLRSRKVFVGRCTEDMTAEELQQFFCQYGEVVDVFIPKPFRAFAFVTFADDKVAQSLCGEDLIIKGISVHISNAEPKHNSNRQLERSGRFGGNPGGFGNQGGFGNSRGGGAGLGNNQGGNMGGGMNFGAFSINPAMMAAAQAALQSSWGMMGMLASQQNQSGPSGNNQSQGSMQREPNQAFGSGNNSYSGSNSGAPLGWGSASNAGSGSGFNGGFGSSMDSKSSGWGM

[3] = biological target: TAR-DNA Binding Protein (TDP-43) (mouse (endogenous in female ESCs)) (UniProt Q921F2)
[4] = biological target: T1, CIZ1 (mouse (endogenous in female ESCs)); remark: listed apart in the source

binding [1]: binds
binding [2]: binds
binding [3]: binds
binding [4]: binds
B1: MATRIN-3 (MATR3) (protein, UniProt Q8K310 1-846)
chain: MSKSFQQSSLGRDSQGHGRDLSAAGIGLLAAATQSLSMPASLGRMNQGTARLASLMNLGMSSSLNQQGAHSALSSASTSSHNLQSIFNIGSRGPLPLSSQHRGDTDQASNILASFGLSARDLDELSRYPEDKITPENLPQILLQLKRRRTEEGPTLSYGRDGRSATREPPYRVPRDDWEEKRHFRRDSFDDRGPSLNPVLDYDHGSRSQESGYYDRMDYEDDRLRDGERCRDDSFFGETSHNYHKFDSEYERMGRGPGPLQERSLFEKKRGAPPSSNIEDFHGLLPKGYPHLCSICDLPVHSNKEWSQHINGASHSRRCQLLLEIYPEWNPDNDTGHTMGDPFMLQQSTNPAPGILGPPPPSFHLGGPAVGPRGNLGAGNGNLQGPRHMQKGRVETSRVVHIMDFQRGKNLRYQLLQLVEPFGVISNHLILNKINEAFIEMATTEDAQAAVDYYTTTPALVFGKPVRVHLSQKYKRIKKPEGKPDQKFDQKQELGRVIHLSNLPHSGYSDSAVLKLAEPYGKIKNYILMRMKSQAFIEMETREDAMAMVDHCLKKALWFQGRCVKVDLSEKYKKLVLRIPNRGIDLLKKDKSRKRSYSPDGKESPSDKKSKTDAQKTESPAEGKEQEEKSGEDGEKDTKDDQTEQEPSMLLESEDELLVDEEEAAALLESGSSVGDETDLANLGDVSSDGKKEPSDKAVKKDPSASATSKKKLKKVDKIEELDQENEAALENGIKNEENTEPGAESAENADDPNKDTSENADGQNDENKEDYTIPDEYRIGPYQPNVPVGIDYVIPKTGFYCKLCSLFYTNEEVAKNTHCSSLPHYQKLKKFLNKLAEERRQKKET

— paper doi:10.1101/2020.03.09.979369
